Test results as given in PubChem BioAssay AID743255 (National Center for Advancing Translational Sciences (NCATS), 2014).
Hit rate of the full screen: of about 390,000 compounds, about 910 (0.23%) were called active. The shares of active, inactive and inconclusive entries below differ from those in the screen. Calls follow the shape of the dose curve; as a rule, active = well fitted inhibition curve with a large enough effect; inconclusive = small, poorly fitted or top-dose-only effect; inactive = no such curve, though single readings can be large or run the other way. Potencies beside an inconclusive call are fits to weak or partial responses and may not hold up.

Sequences of proteins named here, by UniProt entry; tags and fusion partners are left off. A change or cut given only in a name is not applied to a line headed by its entry.
UniProt O94782: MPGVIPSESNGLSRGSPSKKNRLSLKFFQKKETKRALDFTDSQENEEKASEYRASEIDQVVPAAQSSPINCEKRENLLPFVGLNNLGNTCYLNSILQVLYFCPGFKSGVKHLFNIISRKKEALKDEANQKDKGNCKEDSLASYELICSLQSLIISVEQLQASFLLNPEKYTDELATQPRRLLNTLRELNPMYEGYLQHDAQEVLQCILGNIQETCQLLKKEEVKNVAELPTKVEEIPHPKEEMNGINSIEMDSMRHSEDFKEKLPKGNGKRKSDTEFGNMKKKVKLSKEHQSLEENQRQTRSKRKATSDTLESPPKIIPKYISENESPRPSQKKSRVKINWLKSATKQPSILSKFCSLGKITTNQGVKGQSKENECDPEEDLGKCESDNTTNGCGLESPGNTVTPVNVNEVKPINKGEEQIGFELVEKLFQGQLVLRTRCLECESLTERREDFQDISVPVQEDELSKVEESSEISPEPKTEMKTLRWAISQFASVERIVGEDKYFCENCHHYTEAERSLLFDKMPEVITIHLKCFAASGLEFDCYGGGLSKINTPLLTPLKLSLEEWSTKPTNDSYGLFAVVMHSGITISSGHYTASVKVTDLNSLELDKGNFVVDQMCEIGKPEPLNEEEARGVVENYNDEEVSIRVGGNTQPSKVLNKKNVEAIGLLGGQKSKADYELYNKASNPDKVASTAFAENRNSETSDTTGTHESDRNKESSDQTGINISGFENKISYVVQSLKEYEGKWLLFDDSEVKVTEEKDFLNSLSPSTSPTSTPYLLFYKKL

biological target: Ubiquitin carboxyl-terminal hydrolase 1 (Homo sapiens) (UniProt O94782); test: Inhibitors of USP1/UAF1: Primary Screen; conditions: recombinant USP1/UAF1, Ub-Rhodamine cleavage fluorescence; activity change, negative = inhibition: at 57.1 µM (top of the series); also: nearly all actives have a fitted effect of over 60% in size
In short: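 Step one: compound is pinned into 1nM USP1/UAF1 in HEPES pH 7.8 buffer with TCEP. Step two: 15 min room-temperature incubation. Step three: Ub-Rho (150nM final) starts cleavage, tracked by fluorescence over six one-minute reads.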
% is scaled to controls: 0 for no effect and ±100 for the full control effect; potency is read from the fitted curve at half-maximal effect.

Structure (SMILES)	Potency	activity change, negative = inhibition
CCOC(=O)CC1Sc2ccccc2NC1=S (stereo not drawn)	inconclusive: 50.1 µM [inhibitor, single point]	–
COC(=O)c1ccc(OS(=O)(=O)N(C)C)cc1	–	inactive: -16.8%
O=C(NCC(c1cccnc1)N1CCc2ccccc21)c1cccc(C(F)(F)F)c1 (stereo not drawn)	–	inactive: -8.98%
COc1cc2c(-c3ccccc3)c(C)oc2cc1/C=N/NC(N)=S	–	inactive: -13.5%
C#CCNC(=O)C1=C[C@H](c2ccc3c(c2)OCO3)C[C@H](OCCCCO)O1	inconclusive: 44.7 µM [inhibitor, partial curve]	–
Oc1c(CN2CCOCC2)cc(CN2CCOCC2)c(O)c1O	inconclusive: 50.1 µM [inhibitor, partial curve, poor fit]	–
CCOc1ccc(Br)cc1C1=NN(C(C)=O)C(c2ccc([N+](=O)[O-])s2)O1 (stereo not drawn)	active: 22.4 µM	–
O=C1c2ccccc2C(=O)N1CCCn1nnc(-c2ccc(N3CCOCC3)cc2)n1	inconclusive: 1.41 µM [inhibitor, partial curve]	–
CN(C)Cc1c(OC(=O)c2ccc(N)cc2)ccc2ccccc12	inconclusive: 56.2 µM [inhibitor, partial curve, poor fit]	–
Cc1cccc2cc3ccccc3nc12	inconclusive: 1.41 µM [inhibitor, full curve, poor fit]	–
N/C(CS(=O)(=O)c1ccccn1)=N\OC(=O)c1ccccc1Cl	inconclusive: 3.16 µM [inhibitor, partial curve]	–
CN(C)c1nc(=NCc2cccs2)ss1	–	inactive: -8.36%
O=C(NCc1ccco1)c1cccc2c1C(=O)c1ccc(N3CCC(N4CCCCC4)CC3)cc1S2(=O)=O	inconclusive: 141 µM [inhibitor, partial curve, poor fit]	–
CCc1ccc(CN(C)C(=O)c2cc(COc3ccc(OC)cc3Cl)on2)nc1	–	inactive: -12.1%
O=C(CN1Cc2ccccc2C1=O)Nc1cc(F)ccc1F	inconclusive: 112 µM [inhibitor, partial curve, poor fit]	–
Cc1ccc(C)c(NC(=O)N2CC=C(c3c[nH]c4ccccc34)CC2)c1	inconclusive: 31.6 µM [inhibitor, partial curve]	–
Cc1ccc(-c2noc(C3CCCN(S(=O)(=O)c4ccc5ccccc5c4)C3)n2)o1 (stereo not drawn)	inconclusive: 17.8 µM [inhibitor, partial curve, poor fit]	–
Cc1ccccc1Cc1c(C)nc2nc(SCC(=O)NCCCN3CCCC3)nn2c1C	inconclusive: 3.98 µM [inhibitor, single point]	–
CCOC(=O)C1(Cc2ccc(Cl)cc2)CCN(C(=O)C2CCCO2)CC1 (stereo not drawn)	inconclusive: 3.16 µM [inhibitor, partial curve]	–
COc1ccc(-c2nc(N)ncc2-c2ccccc2)c(O)c1	–	inactive: -10.7%
CCOc1cc(C(=O)Nc2ccc3oc(-c4ccc(CC)cc4)nc3c2)cc(OCC)c1OCC	–	inactive: 0.59%

Complete entries from above:
`N/C(CS(=O)(=O)c1ccccn1)=N\OC(=O)c1ccccc1Cl` is listed as Potency: inconclusive: 3.16 µM [inhibitor, partial curve]
`C#CCNC(=O)C1=C[C@H](c2ccc3c(c2)OCO3)C[C@H](OCCCCO)O1` is listed as Potency: inconclusive: 44.7 µM [inhibitor, partial curve]
`CCOc1cc(C(=O)Nc2ccc3oc(-c4ccc(CC)cc4)nc3c2)cc(OCC)c1OCC` is listed as activity change, negative = inhibition: inactive: 0.59%
`O=C(NCc1ccco1)c1cccc2c1C(=O)c1ccc(N3CCC(N4CCCCC4)CC3)cc1S2(=O)=O` is listed as Potency: inconclusive: 141 µM [inhibitor, partial curve, poor fit]

The list goes on.

Structure (SMILES)	Potency	activity change, negative = inhibition
C/C(=N\N=C(N)N)c1cccc(Cl)c1	–	inactive: -14.1%
O=C1/C(=C\c2cc([N+](=O)[O-])ccc2O)SC(=S)N1Cc1ccc(Cl)cc1	inconclusive: 5.01 µM [inhibitor, partial curve]	–
COC(=O)CCCCCN1C(=O)/C(=C\c2ccncc2)SC1=S	–	inactive: -10.4%
Cc1ccc(S(=O)(=O)Nc2cccc(C(=O)NCC(c3ccco3)N(C)C)c2)cc1F (stereo not drawn)	inconclusive: 39.8 µM [inhibitor, partial curve, poor fit]	–
CCc1cc2c(cc3c(=O)n(CCCC(=O)NCc4ccccc4Cl)nc(CC)n32)s1	inconclusive: 0.708 µM [inhibitor, full curve]	–
O=C(Nc1ccn(CCCN2CCN(c3ccccc3)CC2)c(=O)n1)OCc1ccccc1	inconclusive: 0.251 µM [inhibitor, full curve, poor fit]	–
Cc1noc(NS(=O)(=O)c2ccc(NC(=O)C34CCC(CC3)C4)cc2)c1C	inconclusive: 35.5 µM [inhibitor, single point]	–
Cc1ccc([N+](=O)[O-])cc1N/C=C1\CCCCC1=O	inconclusive: 8.91 µM [inhibitor, partial curve, poor fit]	–
O=C(NC1CCCCC1)c1ccc(Cn2c(SCc3cccc(F)c3)nc3cccnc32)cc1	–	inactive: -15%
COc1ccc(S(=O)(=O)Nc2ccc3c(c2)C(=O)N([C@H](C)CO)C[C@H](C)[C@H](CN(C)Cc2ccc(C(=O)O)cc2)O3)cc1	inconclusive: 0.251 µM [inhibitor, full curve, poor fit]	–
COc1ccc(N2CCN(CC(O)COc3ccccc3C(C)(C)C)CC2)cc1 (stereo not drawn)	inconclusive: 1.41 µM [inhibitor, partial curve, poor fit]	–
CCCCn1c(N)c(N(CCC(C)C)C(=O)c2ccc(C)c(S(=O)(=O)N3CCOCC3)c2)c(=O)[nH]c1=O	inconclusive: 5.62 µM [inhibitor, full curve, poor fit]	–
O=C1NC2(CCCCCC2)C(=O)N1Cc1ccccc1Br	inconclusive: 1.58 µM [inhibitor, full curve]	–
CCCCCn1c(SCCC(C)C)nc2c1c(=O)[nH]c(=O)n2C	inconclusive: 50.1 µM [inhibitor, partial curve, poor fit]	–
CCc1ccccc1NC(=O)CSc1nnc(-c2cc(OC)c(OC)c(OC)c2)o1	–	inactive: -26.3%
CCOc1cc(/C=C2/C(=N)N3OC(C)=CC3=NC2=O)ccc1OC(=O)c1ccco1	inconclusive: 44.7 µM [inhibitor, partial curve, poor fit]	–
CCn1c(=S)[nH]c2cc(S(=O)(=O)N3CCCCC3)ccc21	inconclusive: 35.5 µM [inhibitor, partial curve]	–
CCn1c(CN2CCN(c3cccc(Cl)c3)CC2)nc2c1c(=O)[nH]c(=O)n2C	–	inactive: -8.13%
COc1cc(NC(=O)COc2ccc(-n3ccnc3)cc2)cc(OC)c1	inconclusive: 6.31 µM [inhibitor, full curve, poor fit]	–
CCOc1ccc(NC(=O)Cn2c(=O)n(CCc3ccccc3)c(=O)c3c4c(sc32)CN(C(C)=O)CC4)cc1	inconclusive: 12.6 µM [inhibitor, partial curve]	–
C#CCOCCOCCOCCNc1nc(N2CCN(C(=O)CCCCCCCCCCNC(=O)Cn3cc(C[C@@H](C)O)nn3)CC2)nc(N2CCN(C(=O)CCCCCCCCCCNC(=O)[C@H](CO)n3cc(CCCSC)nn3)CC2)n1	inconclusive: 12.6 µM [inhibitor, partial curve, poor fit]	–

Structure (SMILES)	Potency	activity change, negative = inhibition
CCCCN(CC)C(=O)Cn1c(=O)n(-c2ccc(OCC)cc2)c(=O)c2c3c(sc21)CCC3	inconclusive: 1.41 µM [inhibitor, partial curve]	–
CCC(C)Sc1cc(-c2nc3ccc(Cl)cn3c2NC2CCCCC2)ccc1OC (stereo not drawn)	inconclusive: 44.7 µM [inhibitor, partial curve]	–
COc1ccc(-c2csc(NC(=O)CSc3nc(C)cs3)n2)cc1	inconclusive: 15.8 µM [inhibitor, partial curve]	–
COc1ccc(CNC(=O)c2cc3ccccn3n2)c(OC)c1	–	inactive: -15.3%
COc1ccc(C(=O)/C=C/c2ccc(N3CCCCC3)c([N+](=O)[O-])c2)cc1	–	inactive: -19.5%
Cc1ccc(-c2nc(-c3nccc4ccccc34)oc2-c2ccccc2)cc1	inconclusive: 35.5 µM [inhibitor, partial curve]	–
Cc1ccc2[nH]cc(C(c3ccccc3)c3cccs3)c2c1 (stereo not drawn)	inconclusive: 39.8 µM [inhibitor, partial curve, poor fit]	–
CCC(CO)Oc1cc(NCc2ccc(OC)cc2)c2ncn(C(C)C)c2c1 (stereo not drawn)	inconclusive: 7.08 µM [inhibitor, full curve]	–
Cc1ccc(NC2=NC(c3ccccc3)n3c(nc(C)cc3=O)N2)cc1 (stereo not drawn)	inconclusive: 50.1 µM [inhibitor, partial curve, poor fit]	–
CC/C(=C\C1CCCCC1)C(NP(=O)(c1ccccc1)c1ccccc1)c1ccccc1 (stereo not drawn)	inconclusive: 11.2 µM [inhibitor, partial curve]	–
CCC(C)Sc1ccc([C@H]2N[C@@](CC(C)C)(C(=O)OC)[C@H]3C(=O)N(C)C(=O)[C@@H]23)cc1 (stereo partly drawn)	inconclusive: 0.224 µM [inhibitor, full curve, poor fit]	–
O=C(Nc1ccc(N2CCOCC2)c(Cl)c1)c1ccco1	–	inactive: -23.5%
COC(=O)[C@H]1[C@@H](C)N(CCc2cc(OC)c(OC)c(OC)c2)C(=O)N[C@H]1c1ccccc1	inconclusive: 44.7 µM [inhibitor, partial curve, poor fit]	–
Cc1cccc(/C=c2\s/c(=C\C(=O)C(C)(C)C)[nH]c2=O)c1	inconclusive: 31.6 µM [inhibitor, partial curve]	–
O=C(O)CCCCCN1C(=O)/C(=C\c2cn(-c3ccccc3)nc2-c2cccs2)SC1=S	inconclusive: 35.5 µM [inhibitor, partial curve, poor fit]	–
Nc1ncc(S(=O)(=O)NCc2ccccc2F)cn1	–	inactive: -8.79%
Cc1cc(/C=C2\SC(=O)N(C)C2=O)c(C)n1-c1ccc(O)cc1	inconclusive: 31.6 µM [inhibitor, single point]	–
CC(=O)c1ccc(NS(=O)(=O)c2c(C)cc(C)cc2C)cc1	inconclusive: 5.01 µM [inhibitor, partial curve]	–
O=C(NC(=S)Nc1cccc(O)c1)C12CC3CC(CC(C3)C1)C2	inconclusive: 0.355 µM [inhibitor, full curve]	–
CCOc1ccc(-c2csc3ncnc(Nc4cccc(O)c4)c23)cc1	inconclusive: 56.2 µM [inhibitor, partial curve, poor fit]	–
Cc1cccc(NC(=O)CCNC(=O)c2ccc(Br)cc2)c1	inconclusive: 31.6 µM [inhibitor, single point]	–
